Results from PMC5283830, “Suppression of C9orf72 RNA repeat-induced neurotoxicity by the ALS-associated RNA-binding protein Zfp106”.
These are yes or no findings as the source states them, for the method shown. In cells and extracts the contact can be indirect. Some results given as binding are weak or reduced against the parent protein; the word gives no strength. One block for each molecule: values may come before it.

The chains behind the UniProt entries cited, without tags or fusion partners.
UniProt O88466: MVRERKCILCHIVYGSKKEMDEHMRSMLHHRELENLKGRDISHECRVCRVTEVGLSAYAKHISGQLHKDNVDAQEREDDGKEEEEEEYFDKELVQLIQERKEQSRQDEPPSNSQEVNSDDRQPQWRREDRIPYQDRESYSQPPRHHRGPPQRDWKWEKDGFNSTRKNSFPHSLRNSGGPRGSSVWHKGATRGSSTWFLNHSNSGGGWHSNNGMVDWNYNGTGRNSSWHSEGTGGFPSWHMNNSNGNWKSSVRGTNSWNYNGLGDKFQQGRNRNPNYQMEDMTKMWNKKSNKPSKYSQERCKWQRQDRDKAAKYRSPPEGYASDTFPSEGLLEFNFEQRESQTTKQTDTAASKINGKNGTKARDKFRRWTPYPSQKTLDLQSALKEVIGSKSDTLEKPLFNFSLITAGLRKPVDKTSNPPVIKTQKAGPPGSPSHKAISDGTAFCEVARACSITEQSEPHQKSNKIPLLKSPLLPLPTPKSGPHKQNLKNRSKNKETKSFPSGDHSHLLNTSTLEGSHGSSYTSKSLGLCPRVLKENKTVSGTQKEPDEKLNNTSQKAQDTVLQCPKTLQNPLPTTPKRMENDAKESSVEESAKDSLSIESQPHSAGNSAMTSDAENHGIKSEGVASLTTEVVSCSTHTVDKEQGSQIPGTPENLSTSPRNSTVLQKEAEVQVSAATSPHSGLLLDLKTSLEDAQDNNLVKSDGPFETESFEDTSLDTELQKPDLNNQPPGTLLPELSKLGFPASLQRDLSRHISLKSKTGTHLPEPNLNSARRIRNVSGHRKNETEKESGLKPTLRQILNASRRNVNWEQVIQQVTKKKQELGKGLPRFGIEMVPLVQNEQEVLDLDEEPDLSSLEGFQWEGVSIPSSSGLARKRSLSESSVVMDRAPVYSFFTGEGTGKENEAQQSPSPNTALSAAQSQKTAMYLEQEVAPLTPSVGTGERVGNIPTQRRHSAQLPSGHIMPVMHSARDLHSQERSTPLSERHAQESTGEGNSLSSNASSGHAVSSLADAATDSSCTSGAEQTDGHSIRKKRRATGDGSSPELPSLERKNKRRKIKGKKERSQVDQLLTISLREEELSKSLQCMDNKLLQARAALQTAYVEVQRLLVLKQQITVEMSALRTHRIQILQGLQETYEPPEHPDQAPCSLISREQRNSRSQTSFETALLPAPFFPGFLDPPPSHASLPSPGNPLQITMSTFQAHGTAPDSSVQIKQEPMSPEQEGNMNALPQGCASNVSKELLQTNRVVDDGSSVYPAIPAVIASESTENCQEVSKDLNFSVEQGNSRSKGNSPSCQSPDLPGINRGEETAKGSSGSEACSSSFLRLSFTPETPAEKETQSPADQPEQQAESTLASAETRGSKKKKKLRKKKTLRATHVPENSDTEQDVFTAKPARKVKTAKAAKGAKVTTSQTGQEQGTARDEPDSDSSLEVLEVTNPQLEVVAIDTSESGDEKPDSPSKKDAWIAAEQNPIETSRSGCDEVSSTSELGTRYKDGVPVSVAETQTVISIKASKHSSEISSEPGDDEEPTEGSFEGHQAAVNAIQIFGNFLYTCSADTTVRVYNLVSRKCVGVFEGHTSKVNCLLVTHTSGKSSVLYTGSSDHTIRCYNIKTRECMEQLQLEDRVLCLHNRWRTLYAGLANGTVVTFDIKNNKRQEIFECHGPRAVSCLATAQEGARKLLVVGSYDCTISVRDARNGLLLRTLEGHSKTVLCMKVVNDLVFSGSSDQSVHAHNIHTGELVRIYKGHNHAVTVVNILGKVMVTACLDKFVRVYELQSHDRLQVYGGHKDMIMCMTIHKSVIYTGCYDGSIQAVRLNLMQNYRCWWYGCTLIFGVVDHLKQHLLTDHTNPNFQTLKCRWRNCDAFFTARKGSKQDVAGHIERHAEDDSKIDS
UniProt Q921F2: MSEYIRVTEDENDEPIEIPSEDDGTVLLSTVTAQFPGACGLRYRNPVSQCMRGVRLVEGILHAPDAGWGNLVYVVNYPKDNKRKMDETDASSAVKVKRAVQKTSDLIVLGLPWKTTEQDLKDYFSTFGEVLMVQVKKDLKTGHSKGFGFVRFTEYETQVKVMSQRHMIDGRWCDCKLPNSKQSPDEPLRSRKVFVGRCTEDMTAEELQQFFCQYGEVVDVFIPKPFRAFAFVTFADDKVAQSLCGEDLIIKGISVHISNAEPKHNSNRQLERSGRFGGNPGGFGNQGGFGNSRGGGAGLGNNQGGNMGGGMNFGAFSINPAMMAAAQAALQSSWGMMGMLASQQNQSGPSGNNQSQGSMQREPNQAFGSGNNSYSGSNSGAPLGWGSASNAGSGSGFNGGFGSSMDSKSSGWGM

Molecular target: 3×FLAG-2×STREP-Zfp106 (mouse) (UniProt O88466)
Assay: co-IP; Neuro-2a cells transfected with 3×FLAG-2×STREP-Zfp106 or parental vector; lysis with 100 U/ml benzonase, NaCl raised to 150 mM; anti-FLAG(M2) magnetic beads 4 hr at 4°C; western blot for endogenous TDP-43 and Nup107

binding: binds
Molecule: TDP43 (from UniProt Q921F2 1-414)

binding: binds
B1: Nup107 (protein, UniProt Q8BH74 1-926)
chain: MDRSGFGGMSSPVIRDAEVTRTARKHSAHKRVLIQANQEDNFGTATPRSQIIPRTPSSFRQPFVTPSSRSLLRHPDISYILGTEGRSPRHTQSSGYLGNLSMVTNLDDSNWAAAFSSQRLGLYTNTEHHSMTEDVNLSTVMLREDDPGEAASMSMFSDFLHSFLKHSSTTVFDLVEEYENICGSQVNILSKIVSRATPGLQKFSKTASMLWLLQQEMVTWRLLASLYRDRIQSSLEEENMFAIAGINASEKMVVETLFQRDSLVRQSQLVVDWLESIAKDEIGEFSDNIEFYAKSVYWENTLHSLKQRQLLSHMGSTRPLVTELDPDAPIRQKLPLDDLDREDEVRLLKYLFTLIRAGMTEEAQRLCKRCGQAWRAATLEGWKLYHDPNVNGGTELEPVEGNPYRRIWKISCWRMAEDELFNKYERAIYAALSGNLKQLLPVCDTWEDTVWAYFRVMVDSLVEQEIRTSVMTQDDSEELPREYMEANWTLEKVFEELQATDKKRVLEENQEHYHIVQKFLILGDVDGLMDEFSKWLSKSGSSLPGHLLRFMTHLILFLRTLGLQTKEEVSIEVLKTYIQLLISEKHTSLIAFYTCHLPQDLAVAQYALFLEGVTEFEQRHQCLELAKEADLDVATITKTVVENICKKDNGEFSHHDLAPSLDTGTTEEDRLKIDVIDWLVFDPAQRAEALRQGNAIMRKFLALKKHEAAKEVFVKIPQDSIAEIYNQWEEQGMESPLPAEDDNAIREHLCIRAYLEAHETFNEWFKHMNSAPQKPTLLSQATFTEKVAYEHREKKYEMDHNIWKGHLDALTADVKEKMYNVLLFVDGGWMVDVREDAEDDPERTHQMVLLRKLCLPMLCFLLHTILHSTGQYQECLQLADMVSSERHKLYLVFSKEELRKLLQKLRESSLMLLDQGLDPLGYEIQS
